Experimental data taken from patent publication US6743618B2, “Thermostable proteolytic enzymes and uses thereof in peptide and protein synthesis” (University of Florida Research Foundation, Inc., priority 1996, dated 2004).
At least one compound was matched to its structure with a doubt left.

System: Pyrococcus furiosus serine protease (carboxypeptidase/endopeptidase), native, about 81 kDa, N-terminus SEQ ID NO: 1
Test: Kinetic studies and substrate specificity (hydrolysis of synthetic peptide and ester substrates; progress curves, Hanes plot)
Format: biochemical
Excerpt: The hydrolysis kinetics of various synthetic peptide and ester protease substrates were studied. Two different methods have been used to analyze the kinetic properties of the enzyme. The first utilized initial velocity data at several substrate concentrations with analysis by plotting s/v νs s (Hanes plot). This method was always used when it was possible that the protease could cleave at more than one site (e.g., PPANA). The second method utilizes all data of the progress curve of the reaction. Progess curves were analyzed in two ways:
Instantaneous point by point derivatives were calculated from the absorbance νs time data by fitting 10 points spaced 1 second apart by least squares to a second degree polynomial. Derivatives were computed analytically and were used to construct plots of v νs s, which were then analyzed by non-linear regression to obtain Km, kcat and any product inhibition constant (Ki) if it exists. […] For all measurements at elevated temperature, the first-order rate constants for non-enzymic hydrolysis were determined for all substrates. The analytic method described here was used both for reactions at 25.0° C. and 80.0° C.
b. Integrated Rate Equation Analyses: t νs Absorbance
For these analyses, the integrated Michaelis-Menten equation was used, but not in linearized form, for reasons relating to product inhibition. Plots of time (now the dependent variable) νs absorbance were constructed from the raw data and analyzed by non-linear regression. […] This method was used for analyses at 25.0° C. only.
Subroutines for the above analyses were written to analyze the kinetic data for: product competitive inhibition, non-competitive inhibition, 2-product inhibition, and simple Michaelis-Menten kinetics. […]
All kinetic studies utilized a Cary 3E double beam spectrophotometer and absorbance νs time data were collected by computer at 1 second intervals. […]
All of the above are mean values from at least 4 separate experiments. […] PPANA values were obtained from initial velocity measurements, analyzed by the Hanes equation. […] N. D. means not determined.

[1] = 25.0° C., 0.025 M Na phosphate, pH 7.0, mean of at least 4 experiments (PPANA: initial velocities, Hanes equation)

For CC(C)C[C@H](NC(=O)CNC(=O)/C=C/c1ccco1)C(N)=O [FAGLA, furyl-acryloyl-glycyl-leucine amide], the Km [1] was 6.08 µM, the kcat [1] was 0.67 s⁻¹ and the “product inhibition, Ki compared with Km” value (in words) was “Ki<Km”.
